Experimental data taken from publication doi:10.1101/2025.08.07.669170.
Read-outs that look alike come from different tables or passages of the source. No constants are given. Whether binding was seen depends on the method and setting. In cells and extracts the contact can be indirect. Some entries that bind do so weakly or less than the wild type.

The chains behind the UniProt entries cited, without tags or fusion partners.
UniProt Q9UN81: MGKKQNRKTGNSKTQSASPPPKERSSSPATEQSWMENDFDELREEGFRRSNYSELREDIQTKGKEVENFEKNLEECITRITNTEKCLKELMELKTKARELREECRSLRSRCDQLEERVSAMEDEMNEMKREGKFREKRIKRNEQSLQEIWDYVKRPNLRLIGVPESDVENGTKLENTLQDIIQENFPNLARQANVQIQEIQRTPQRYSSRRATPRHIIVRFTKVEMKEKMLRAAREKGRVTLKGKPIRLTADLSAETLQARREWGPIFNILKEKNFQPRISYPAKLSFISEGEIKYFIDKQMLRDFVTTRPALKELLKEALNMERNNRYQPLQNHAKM
UniProt Q9NYF8: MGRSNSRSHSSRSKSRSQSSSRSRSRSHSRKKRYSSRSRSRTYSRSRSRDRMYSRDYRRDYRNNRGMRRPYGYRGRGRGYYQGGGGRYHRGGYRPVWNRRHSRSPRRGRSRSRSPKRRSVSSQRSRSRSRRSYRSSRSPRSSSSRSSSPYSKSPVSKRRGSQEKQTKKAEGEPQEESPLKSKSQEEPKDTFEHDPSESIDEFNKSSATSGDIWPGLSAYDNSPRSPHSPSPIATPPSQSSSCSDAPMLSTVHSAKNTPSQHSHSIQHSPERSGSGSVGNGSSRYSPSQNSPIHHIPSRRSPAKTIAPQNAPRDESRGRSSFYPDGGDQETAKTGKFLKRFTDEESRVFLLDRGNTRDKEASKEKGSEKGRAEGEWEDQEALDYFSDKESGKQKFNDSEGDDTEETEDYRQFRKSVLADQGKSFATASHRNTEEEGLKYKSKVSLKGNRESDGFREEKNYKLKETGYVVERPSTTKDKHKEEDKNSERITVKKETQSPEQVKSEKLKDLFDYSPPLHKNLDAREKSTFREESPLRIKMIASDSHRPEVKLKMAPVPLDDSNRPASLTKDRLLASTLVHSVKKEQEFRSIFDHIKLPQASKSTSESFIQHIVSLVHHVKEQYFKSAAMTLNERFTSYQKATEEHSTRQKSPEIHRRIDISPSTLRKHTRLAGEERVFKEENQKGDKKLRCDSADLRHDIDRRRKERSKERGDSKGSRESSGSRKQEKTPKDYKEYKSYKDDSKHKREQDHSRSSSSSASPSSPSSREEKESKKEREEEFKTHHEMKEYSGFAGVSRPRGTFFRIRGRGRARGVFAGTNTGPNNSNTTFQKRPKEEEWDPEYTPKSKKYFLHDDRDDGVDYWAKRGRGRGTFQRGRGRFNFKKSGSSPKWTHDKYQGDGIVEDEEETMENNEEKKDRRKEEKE
UniProt P20700: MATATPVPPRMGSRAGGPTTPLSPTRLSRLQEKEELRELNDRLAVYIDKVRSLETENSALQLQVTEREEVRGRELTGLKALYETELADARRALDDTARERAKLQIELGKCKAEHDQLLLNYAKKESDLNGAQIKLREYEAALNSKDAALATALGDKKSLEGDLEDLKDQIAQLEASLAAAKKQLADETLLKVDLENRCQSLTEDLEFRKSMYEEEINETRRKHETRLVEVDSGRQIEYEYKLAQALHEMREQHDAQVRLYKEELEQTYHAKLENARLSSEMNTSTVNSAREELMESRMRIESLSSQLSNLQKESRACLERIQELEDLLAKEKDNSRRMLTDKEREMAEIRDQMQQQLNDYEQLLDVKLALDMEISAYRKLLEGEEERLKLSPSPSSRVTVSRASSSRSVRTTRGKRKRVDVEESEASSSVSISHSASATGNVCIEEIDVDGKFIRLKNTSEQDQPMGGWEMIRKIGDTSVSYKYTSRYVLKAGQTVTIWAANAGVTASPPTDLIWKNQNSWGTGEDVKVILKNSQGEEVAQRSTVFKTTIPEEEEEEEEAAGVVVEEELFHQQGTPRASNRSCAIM

Assays:
[1] = molecular target: LINE-1 ORF1p (human (endogenous in PC3)) (UniProt Q9UN81); experiment: proximity ligation
[2] = molecular target: LINE-1 ORF1p (human (endogenous in PC3)) (UniProt Q9UN81); experiment: proximity ligation; remark: listed apart in the source

Row | binding [1] | binding [2] | Substance
1 | binds |  | BCLAF1 (from UniProt Q9NYF8 1-920)
2 | binds | binds weakly | lamin B1 (from UniProt P20700 1-586)
